Results published in article PMC5245867.
No constants are given. Whether binding was seen depends on the method and setting. Binding seen in cells or lysates may run through a third protein. Here binding means that the protein was enriched with, or labelled near, the bait; the list need not be complete.

Chains of the proteins cited; added tags and fusions are not shown.
UniProt O35085: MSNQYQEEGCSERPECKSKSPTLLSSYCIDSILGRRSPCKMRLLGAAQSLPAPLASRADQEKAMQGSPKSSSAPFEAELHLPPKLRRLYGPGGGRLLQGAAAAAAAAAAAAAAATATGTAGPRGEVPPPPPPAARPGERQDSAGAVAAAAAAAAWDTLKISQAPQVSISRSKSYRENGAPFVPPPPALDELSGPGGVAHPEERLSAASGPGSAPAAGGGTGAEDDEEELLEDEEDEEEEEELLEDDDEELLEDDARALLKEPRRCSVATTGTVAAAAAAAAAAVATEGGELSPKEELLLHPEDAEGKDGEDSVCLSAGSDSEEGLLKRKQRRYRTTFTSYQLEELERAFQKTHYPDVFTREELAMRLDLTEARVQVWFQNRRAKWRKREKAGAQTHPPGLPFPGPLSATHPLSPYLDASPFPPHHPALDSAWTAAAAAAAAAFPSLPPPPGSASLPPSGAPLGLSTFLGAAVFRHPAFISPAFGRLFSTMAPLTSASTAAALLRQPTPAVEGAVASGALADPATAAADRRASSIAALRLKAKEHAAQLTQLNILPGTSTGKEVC
UniProt Q91WK0: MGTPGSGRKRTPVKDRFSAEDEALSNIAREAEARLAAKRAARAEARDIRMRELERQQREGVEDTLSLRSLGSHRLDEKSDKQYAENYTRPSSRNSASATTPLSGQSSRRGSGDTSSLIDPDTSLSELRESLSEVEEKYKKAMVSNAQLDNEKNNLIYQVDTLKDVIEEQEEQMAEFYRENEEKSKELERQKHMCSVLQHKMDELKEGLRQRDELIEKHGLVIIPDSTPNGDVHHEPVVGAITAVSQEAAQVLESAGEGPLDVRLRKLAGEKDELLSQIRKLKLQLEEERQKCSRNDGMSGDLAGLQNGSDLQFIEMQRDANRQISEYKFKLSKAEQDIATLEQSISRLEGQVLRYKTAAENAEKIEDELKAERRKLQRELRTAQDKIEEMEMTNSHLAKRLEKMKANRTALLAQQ
UniProt Q02248: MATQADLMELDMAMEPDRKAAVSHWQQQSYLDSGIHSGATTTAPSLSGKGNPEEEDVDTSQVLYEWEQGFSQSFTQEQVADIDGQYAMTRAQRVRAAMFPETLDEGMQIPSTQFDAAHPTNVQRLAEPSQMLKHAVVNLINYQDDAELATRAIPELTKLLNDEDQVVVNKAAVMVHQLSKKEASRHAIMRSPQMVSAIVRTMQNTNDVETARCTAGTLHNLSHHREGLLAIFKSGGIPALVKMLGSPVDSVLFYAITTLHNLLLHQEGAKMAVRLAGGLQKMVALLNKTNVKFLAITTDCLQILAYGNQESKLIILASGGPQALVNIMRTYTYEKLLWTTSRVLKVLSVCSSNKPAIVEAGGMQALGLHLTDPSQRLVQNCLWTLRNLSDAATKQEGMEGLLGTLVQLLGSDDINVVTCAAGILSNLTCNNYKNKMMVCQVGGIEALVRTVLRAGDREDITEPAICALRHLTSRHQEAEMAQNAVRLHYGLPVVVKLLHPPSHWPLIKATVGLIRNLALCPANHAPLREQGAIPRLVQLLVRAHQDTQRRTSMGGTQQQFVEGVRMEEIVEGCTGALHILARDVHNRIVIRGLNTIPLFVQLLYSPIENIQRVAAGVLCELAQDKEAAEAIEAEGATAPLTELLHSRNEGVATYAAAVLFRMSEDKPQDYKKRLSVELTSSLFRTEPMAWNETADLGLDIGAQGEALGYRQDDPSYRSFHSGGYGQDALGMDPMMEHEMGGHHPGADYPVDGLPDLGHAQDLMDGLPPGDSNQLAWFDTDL

B1: B-cell CLL/lymphoma 9 (BCL9) (protein, UniProt Q9D219 1-1425)
chain: MHPSNPKVRSSPSGNTQSSPKSKQEVMVRPPTVMSPSGNPQLDSKFSNQGKPGGSASQSQPSPCDSKSGGHTPKALPGPGGSMGLKNGAGNGAKGKGKRERSISADSFDQRDPGTPNDDSDIKECNSADHIKSQESQHTPHSMTPSTATAPRSSTPSHGQTPAPEPISAQKTPAKVVYVFSTEMANKAAEAVLKGQVETIVSFHIQNISNSKSERSTAPLNTQIPTLRNDPKPLPQQPPAPANQDQNSSQNARLQPTPPIQAPAPKPTAAPRPLDRESPGVENKLIPPVGSPGSSTPLPPDGTGPNSTPNNRAVTPVSQGSNSSSADPKAPPPPPVSGGEPPTLGENPDGLSQEQLEHRERSLQTLRDIQRMLFPDEKEFTAGQTGGPQQNTGVLDGPQKKPDGPIQAMMSQSQSLGKGPGPRTDVGAPFGPQGHRDVPFSPDEMVPPNMSSQSGPIGPDHLDHMTPEQIAWLKLQQEFYEEKRRKQEQVVVQQCSLQDMMVHQHGPRGVVRGPPPPYQMAPGEGWAPGAEPFPDGINISHSLPPRGMAPHPNMPGSQMRLPGFAGMINSEMEGPNVPNPASRPGLSGVSWPDDVPKIPDGRNFPPGQGVFSGPGRGERFPNPQGLSEEMFQQQLAEKQLALPPGMSMEGIRPGMEMNRMIPGSQRHMEPGSNPIFPRIPVEGPLSPSRGDFPKGMPPQIGPGRELEFGMVPGGMKGEVNLNVNMGSSSQMIPQKMREAGAGPEEMMKLRPGSSEMLPAQQKMVPLPFGEHPQQEYGVGPRPFLPMSQGPGSNSGLRNLREPIGPDQRTNSRLSHMPPLPLNPSSNPTSLSTAPPVQRGLGRKPLDISVAGSQVHSPGINPLKSPTMHQVQSPMLGSPSGNLKSPQTPSQLAGMLAGPAAAASIKSPPVLGSAAASPVHLKSPSLPAPSPGWTSSPKPPLQSPGIPPNHKAPLTMASPAMLGSVESGGPPPPTASQPASVNIPGSLPSSTPYPMPPEPTLSQNPLSIMMSRMSKFAMPSSTPLYHDAIKTVASSDDDSPPARSPNLPSMNSMPGMGINTQNPRISGPNPVVPMPTLSPMGMTQPLSHSNQMPSPNAMGPSIPPHGVPMGPGLMSHNPIMGHGSQEPPMVPQGRMGFPQGFPPVQSPPQQVPFPHNGPTGGQGNFPGGIGFPGEGPLGRPSNLPQSSADPALCKPGGPGAPDSFTVLGNSMPSVFTDPDLQEVIRPGATGIPEFDLSRIIPSEKPSQTLQYFPRGEVPGRKQPQGPGPGFSHMQGMMSDQAPRMGLALPGMGGPGPVGTPDIPLGTSPSMPGHNPMRPPAFLQQGMMGPHHRMMSPAQSTVPGPATLMTNPAAAVGMIPGKDRGPAGLYTHPGPVGSPGMMMSMQGMMGPQQNIMIPPQMRPRGMAADVGMGGFSQGPGNPGNMMF

target: Aristaless related homeobox (ARX) protein (mouse (endogenous in E14.5 forebrain)) (UniProt O35085); experiment: affinity purification with mass spectrometry; E14.5 mouse forebrain lysate (buffer B: 25 mM Tris-Cl pH 7.4, 140 mM NaCl, 1% Triton X-100), anti-ARX antibody on Dynabeads, 2 hr at 4°C, acid elution, MS-MS; IgG control

binding, binds:
leucine rich repeat flightless interacting protein 2 (LRRFIP2) (from UniProt Q91WK0 1-415)
β-catenin (CTNNB1) (from UniProt Q02248 1-781)
B1
